Results are given in words; binding and its absence hold for the method and conditions named. In cells and extracts the contact can be indirect. Some binding calls cover weakened binding; strength is not graded here.
Legend:
[1] = target: Influenza A virus nucleoprotein (NP) of A/Puerto Rico/8/34 (H1N1), made by the virus in infected cells (Influenza A virus A/Puerto Rico/8/34 (H1N1)) (UniProt P03466); assay: co-IP
[2] = target: Filamin A (FLNA), endogenous in A549 cells (human (endogenous in A549)) (UniProt P21333); assay: co-IP

By UniProt entry, the sequences of proteins in these tests, tags left out.
UniProt P03466: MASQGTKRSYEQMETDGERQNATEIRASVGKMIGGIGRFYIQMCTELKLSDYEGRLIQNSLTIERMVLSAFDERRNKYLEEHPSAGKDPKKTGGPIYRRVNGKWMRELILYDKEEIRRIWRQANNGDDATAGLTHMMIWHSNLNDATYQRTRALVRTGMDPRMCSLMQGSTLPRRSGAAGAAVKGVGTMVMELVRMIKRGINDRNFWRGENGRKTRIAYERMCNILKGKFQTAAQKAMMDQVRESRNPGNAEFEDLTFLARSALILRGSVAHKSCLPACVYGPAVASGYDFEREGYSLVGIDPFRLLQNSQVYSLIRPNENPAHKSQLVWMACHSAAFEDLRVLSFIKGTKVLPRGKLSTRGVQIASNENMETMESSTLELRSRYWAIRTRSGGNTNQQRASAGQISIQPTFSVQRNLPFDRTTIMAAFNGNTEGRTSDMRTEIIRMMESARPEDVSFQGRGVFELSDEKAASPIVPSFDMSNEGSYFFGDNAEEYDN
UniProt P21333: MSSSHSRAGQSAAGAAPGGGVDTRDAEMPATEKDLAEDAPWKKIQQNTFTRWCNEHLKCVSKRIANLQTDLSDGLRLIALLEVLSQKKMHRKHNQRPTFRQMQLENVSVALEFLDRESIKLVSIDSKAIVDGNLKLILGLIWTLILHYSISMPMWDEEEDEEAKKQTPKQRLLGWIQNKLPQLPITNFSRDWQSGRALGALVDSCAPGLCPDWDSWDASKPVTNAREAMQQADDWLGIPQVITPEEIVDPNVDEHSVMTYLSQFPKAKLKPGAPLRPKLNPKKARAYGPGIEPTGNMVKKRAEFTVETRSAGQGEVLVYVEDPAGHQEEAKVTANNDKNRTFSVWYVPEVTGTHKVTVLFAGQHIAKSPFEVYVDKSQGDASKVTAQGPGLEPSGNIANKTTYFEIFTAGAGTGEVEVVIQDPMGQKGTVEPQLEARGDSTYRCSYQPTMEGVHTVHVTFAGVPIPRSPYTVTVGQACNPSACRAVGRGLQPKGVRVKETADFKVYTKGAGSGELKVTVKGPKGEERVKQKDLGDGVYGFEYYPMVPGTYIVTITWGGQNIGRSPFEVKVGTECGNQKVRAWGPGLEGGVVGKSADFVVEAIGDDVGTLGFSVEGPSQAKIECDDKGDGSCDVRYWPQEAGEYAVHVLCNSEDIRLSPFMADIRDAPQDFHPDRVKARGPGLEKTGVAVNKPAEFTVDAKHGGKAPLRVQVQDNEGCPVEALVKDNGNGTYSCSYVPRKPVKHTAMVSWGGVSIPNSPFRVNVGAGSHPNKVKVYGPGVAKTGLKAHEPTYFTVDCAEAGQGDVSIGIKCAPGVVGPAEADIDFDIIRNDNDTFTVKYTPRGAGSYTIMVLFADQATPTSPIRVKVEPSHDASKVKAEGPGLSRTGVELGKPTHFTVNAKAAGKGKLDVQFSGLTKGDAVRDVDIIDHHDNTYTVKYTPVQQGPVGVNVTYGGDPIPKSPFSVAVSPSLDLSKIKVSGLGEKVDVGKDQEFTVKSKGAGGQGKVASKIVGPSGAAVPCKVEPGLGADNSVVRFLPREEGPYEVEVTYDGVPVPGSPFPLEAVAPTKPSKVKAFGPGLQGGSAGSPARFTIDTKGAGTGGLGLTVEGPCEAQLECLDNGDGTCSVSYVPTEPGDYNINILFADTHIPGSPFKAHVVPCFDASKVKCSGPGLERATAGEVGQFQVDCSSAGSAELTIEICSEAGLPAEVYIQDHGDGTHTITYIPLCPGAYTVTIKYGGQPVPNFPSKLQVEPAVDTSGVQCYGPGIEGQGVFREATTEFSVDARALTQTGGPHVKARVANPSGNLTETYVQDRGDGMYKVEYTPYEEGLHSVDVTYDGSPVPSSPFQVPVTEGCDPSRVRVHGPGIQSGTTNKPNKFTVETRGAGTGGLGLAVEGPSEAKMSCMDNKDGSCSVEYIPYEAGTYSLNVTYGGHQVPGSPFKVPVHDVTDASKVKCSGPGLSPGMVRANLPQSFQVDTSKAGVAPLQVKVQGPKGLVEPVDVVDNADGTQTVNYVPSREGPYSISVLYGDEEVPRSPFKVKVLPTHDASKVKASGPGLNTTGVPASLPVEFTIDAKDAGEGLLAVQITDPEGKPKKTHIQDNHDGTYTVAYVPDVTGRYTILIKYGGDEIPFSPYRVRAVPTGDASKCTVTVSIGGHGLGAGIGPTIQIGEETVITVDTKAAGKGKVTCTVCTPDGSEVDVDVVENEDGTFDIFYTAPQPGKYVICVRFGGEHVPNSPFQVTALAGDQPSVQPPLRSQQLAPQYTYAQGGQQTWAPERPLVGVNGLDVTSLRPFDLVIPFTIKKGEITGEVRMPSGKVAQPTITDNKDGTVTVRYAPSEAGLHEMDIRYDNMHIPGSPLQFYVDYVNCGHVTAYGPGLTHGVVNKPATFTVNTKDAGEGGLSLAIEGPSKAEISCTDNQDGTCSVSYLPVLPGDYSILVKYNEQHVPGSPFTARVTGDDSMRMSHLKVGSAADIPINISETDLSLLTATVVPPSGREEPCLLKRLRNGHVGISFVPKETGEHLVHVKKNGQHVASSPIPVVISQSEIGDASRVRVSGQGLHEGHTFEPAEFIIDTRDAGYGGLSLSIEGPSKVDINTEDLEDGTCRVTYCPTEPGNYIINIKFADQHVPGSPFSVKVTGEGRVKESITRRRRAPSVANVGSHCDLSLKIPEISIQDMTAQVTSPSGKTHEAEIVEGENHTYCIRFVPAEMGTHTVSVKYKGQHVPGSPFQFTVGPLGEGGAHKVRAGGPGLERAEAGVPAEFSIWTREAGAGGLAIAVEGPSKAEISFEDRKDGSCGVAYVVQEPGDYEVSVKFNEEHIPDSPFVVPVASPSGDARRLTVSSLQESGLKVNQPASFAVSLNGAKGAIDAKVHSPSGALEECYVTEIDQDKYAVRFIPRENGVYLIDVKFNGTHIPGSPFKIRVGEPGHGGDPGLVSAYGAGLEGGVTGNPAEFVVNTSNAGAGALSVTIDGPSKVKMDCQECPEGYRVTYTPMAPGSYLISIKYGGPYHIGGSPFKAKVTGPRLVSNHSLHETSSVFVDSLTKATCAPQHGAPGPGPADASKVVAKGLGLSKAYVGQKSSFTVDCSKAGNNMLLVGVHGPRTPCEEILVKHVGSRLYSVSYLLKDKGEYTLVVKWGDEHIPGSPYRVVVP

Substance | binding [1] | binding [2]
Filamin A (FLNA), endogenous in A549 cells (from UniProt P21333 1-2647) | binds | –
Influenza A virus nucleoprotein (NP) of A/Puerto Rico/8/34 (H1N1), made by the virus in infected cells (from UniProt P03466 1-498) | – | binds
